# Measured values reported in paper PMC12040169 (PLOS Biology, 2025).
# Some of the results follow.
# Tested on: T1, CTL2-GFP (C. trachomatis L2/434/Bu, GFP-expressing)
# T1 construct: L2/434/Bu, GFP-expressing
# Set-up: species or system HeLa; Intracellular C. trachomatis growth in HeLa cells, bulk GFP fluorescence relative to DMSO
# Details: bulk GFP, single well; 28.5 h, 10 µM; inhibitor
row,SMILES,% of control remaining [%]
1,O=C(c1csc(-c2ccccc2)n1)N1CCn2nc(C3CC3)cc2C1 [CBK304676],119.609
2,COc1ccc(CN2CCNC(=O)C2CC(=O)O)c(F)c1 (stereo not shown) [CBK270143],122.925
3,CSc1ncc(CNC(=O)Nc2ccc3c(c2)CCC3)n1C [CBK306996],120.398
4,CC(C)n1nccc1NC(=O)CCn1c(C(F)F)cc2cccnc21 [CBK284690],89.4899
5,CC(=O)c1ccc(-c2nccnc2NCCc2ccncc2)s1 [CBK037300],169.477
6,Cc1ccc(NCC2CCN(Cc3cc(=O)n4ccccc4n3)C2)nc1 (stereo not shown) [CBK306334],111.266
7,COc1cccc(Nc2cc(-c3ccc(N4CCOCC4)cc3)ncn2)c1OC [CBK037687],220.204
8,NC(=O)CCCCn1c2c(c3cccc(C(=O)O)c31)CCCCC2 [CBK034088],99.5407
9,Cc1noc(C)c1NC(=O)c1cnccn1 [CBK200390],115.163
10,C=CCn1c(SCC(=O)Nc2cc(Cl)ccc2O)nnc1-c1ccccc1O [CBK269102],115.502
11,Fc1ccc(C2(CCCN3CCN(c4ccncc4)CC3)OCCO2)cc1 [CBK038887],100.172
12,NC(=O)COc1ccccc1OCC(N)=O [CBK261032],117.493
13,C/C(=N\NC(=O)c1ccccc1I)c1cccc(N)c1 [CBK260935],100.563
14,COc1cnc(-c2ccccc2)c(NC(C)=O)n1 [CBK145410],100
15,O=C(O)CCN1CCN(Cc2ccc(Cl)cc2)CC1 [CBK287271],128.158
16,CN(C)c1ccccc1-c1cnc(N2CCOCC2)c2nccn12 [CBK091280],135.398
17,Brc1ccc2nc3c(nc2c1)Nc1nonc1N3 [CBK262414],102.113
18,Cc1ccccc1NS(=O)(=O)c1ccc(OCC(=O)N2CCN(c3cc(Cl)ccc3C)CC2)cc1 [CBK267649],117.998
19,COc1ccc(CCNS(=O)(=O)c2ccc(C3CNC(=O)C3)cc2)cc1OC (stereo not shown) [CBK268352],92.6254
20,CCCCNc1cc(N2CCN(c3cnn(C)c3)C(=O)C2)nc(N)n1 [CBK306260],106.519

row,SMILES,% of control remaining [%]
1,Cc1cc(/C=C(/C#N)c2nc3ccccc3[nH]2)c(C)n1-c1ccc(N2CCOCC2)cc1 [CBK263792],118.677
2,Nc1ccc(-c2cn3ccnc3c(NCc3ccccc3)n2)cc1 [CBK066592],124.695
3,O=C(Nc1ccc(O)cc1C(=O)O)c1ccc2c(c1)C(=O)N(Cc1ccccc1)C2=O [CBK266540],159.219
4,Cn1ncc2c1CCCN(C(=O)COc1ccc(C(C)(C)C)cc1)C2 [CBK285286],99.7629
5,COc1ccc(-c2ccc(N3CCN(CCN(C)C)CC3)nc2)cc1OC [CBK036818],183.859
6,O=C(O)/C=C\C(=O)Nc1ccc(Cl)c(NC(=O)Cc2ccccc2)c1 [CBK263955],137.673
7,COc1ncc(-c2cnc(N)c(-c3cccc(N(C)C)c3)n2)c(OC)n1 [CBK064017],190.926
8,OC1(c2cccnc2F)CCN(Cc2cc(F)cc(F)c2)CC1 [CBK285375],133.766
9,O=c1[nH]c2ccccc2cc1CNc1ccc(F)cc1F [CBK281933],139.534
10,O=C1NC2(CC3CCC2CC3C(=O)NC2CC2)Oc2ccccc21 (stereo not shown) [CBK284352],79.9927
11,CN(C)c1ccc(-c2nc(-c3cccc(OC(F)(F)F)c3)cnc2N)cc1 [CBK063942],188.207
12,O=C(O)c1ccc(S(=O)(=O)c2ccc3c(c2)C(=O)N(c2cc(C(=O)O)cc(C(=O)O)c2)C3=O)cc1 [CBK262824],100
13,C=CCNc1nccnc1-c1ccc(O)cc1 [CBK036898],184.829
14,CC(C)CNc1nc(SCC(N)=O)nc(N(C)C)n1 [CBK269579],109.863
15,O=C(CC1CCCC1)N1CCCC(c2cc3cccnc3[nH]2)C1 (stereo not shown) [CBK284940],107.091
16,CC1CCCC(C)N1C(=O)Cn1c(=O)n(C)c2ncccc21 (stereo not shown) [CBK282389],104.244
17,Cc1cc(-c2nnc3n2N=C(c2ccccc2)CS3)n[nH]1 [CBK287944],172.409
18,O=C(Nc1nnc[nH]1)c1ccccc1CCc1ccccc1 [CBK268616],132.137
19,CC(C)(C)NS(=O)(=O)c1ccccc1[N+](=O)[O-] [CBK260932],109.739
20,FC(F)(F)c1cccc(CSc2cc(N3CCCC3)ncn2)c1 [CBK107184],111.529

# Exported with tabs: three of the compounds above.
row	SMILES	% of control remaining [%]
6	O=C(O)/C=C\C(=O)Nc1ccc(Cl)c(NC(=O)Cc2ccccc2)c1 [CBK263955]	137.673
7	COc1ncc(-c2cnc(N)c(-c3cccc(N(C)C)c3)n2)c(OC)n1 [CBK064017]	190.926
8	OC1(c2cccnc2F)CCN(Cc2cc(F)cc(F)c2)CC1 [CBK285375]	133.766
